In PubChem BioAssay AID1458 (National Center for Advancing Translational Sciences (NCATS), 2008):
About 5,900 (2.8%) of roughly 210,000 compounds were called active. About 5% were inconclusive and are not listed. Calls follow the shape of the dose curve; as a rule, active = well fitted activation curve with a large enough effect; inconclusive = small, poorly fitted or top-dose-only effect; inactive = no such curve, though single readings can be large or run the other way. The entries are a selection whose mix differs from that of the whole data set. Where no call is shown, the source filed none.
Potency is read from the fitted curve at half-maximal effect.

Test: qHTS Assay for Enhancers of SMN2 Splice Variant Expression; also: nearly all actives have a fitted effect of over 55% in size; as to activity change, positive = activation: % of control where 0% means no effect
Details: HEK293 SMN2-luciferase splicing reporter, luminescence, 30-36 h; activity change, positive = activation: at 46.1 µM (top of the series) unless noted
Method in brief: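 qHTS luciferase splicing reporter: luminescence rises when SMN2 exon 7 is included in transfected HEK293 cells. Compound exposure lasted 30-36 h at 37C, with 4.5 mM final sodium butyrate as control, followed by a ONE-Glo read.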
COCCn1cnc2c1c(=O)n(CC(=O)OCC(=O)NCCCc1ccccc1)c(=O)n2Cc1ccccc1 gave an activity change, positive = activation of -35%.
In the case of [O-]/C(=C(\C(=S)Nc1ccc(SC(F)F)cc1)[n+]1ccccc1)c1ccc(Cl)cc1Cl, the “activity change, positive = activation” value is reported as inactive: -77.8%.
Work on CCN(c1ccccc1)S(=O)(=O)c1cc(C(=O)Nc2ccc(Br)cc2)ccc1F yielded an activity change, positive = activation of -59.7%.
Cc1ccccc1C(=O)Nc1nnc(-c2ccco2)o1 showed an activity change, positive = activation of 68.4%.
For COCCCNC(=O)CC(NS(=O)(=O)c1ccc(Cl)cc1)c1ccco1 (stereo not given), the activity change, positive = activation was 30.1%.
For CCCS(=O)(=O)N1CCCC(C(=O)NCC(OC)OC)C1 (stereo not given), the “activity change, positive = activation” value was inactive: -37.4%.
In the case of O=C(NC12CC3CC(CC(C3)C1)C2)c1ccc(-c2ccccc2Cl)o1, the “activity change, positive = activation” value is reported as inactive: 7.98%.
With CCOc1ccc2nc(N3CCCCCC3)sc2c1 the Potency was active: 7.94 µM.
Work on N#Cc1sc2nc(-c3cccs3)cc(-c3ccc(F)cc3)c2c1N yielded an activity change, positive = activation of -7.37%.
Compound Cc1ccccc1N1C(N)=NC(N)=NC1(C)C has an activity change, positive = activation of 51.1%.
O=C(CSc1ncnc2ccccc12)c1ccco1 gave an activity change, positive = activation of 31.2%.
In the case of CCCCN(CCCC)C(=O)CSc1nnc(-c2cc(OC)c(OC)c(OC)c2)o1, the “activity change, positive = activation” value is reported as inactive: -53.5%.
With O=C(NNC1CC(=O)N(c2ccc(Br)cc2)C1=O)c1cccnc1 (stereo not given) the activity change, positive = activation was -39.7%.
CCN(CC)c1ccc(C(=O)OCC(=O)N(C(C)C)C(C)C)cc1 showed an activity change, positive = activation of -31.2%.
With Cc1cccc(-n2ncc3c(NCCCn4ccnc4)ncnc32)c1 the Potency was active: 7.08 µM.
In the case of O=C(CSc1nnc2ccccn12)c1ccc2c(c1)OCCO2, the Potency is reported as active: 11.2 µM.
With Cc1ccc(NC(=O)NCc2ccc3[nH]c(C)cc3c2)cc1 the Potency was active: 22.4 µM.
In the case of CCCCc1c(O)nc(SCC(=O)N2CCCCC2)n(-c2ccccc2C)c1=O, the activity change, positive = activation is reported as 31%.
With O=C(Nc1ccccc1Cl)Nc1cccnc1Cl the “activity change, positive = activation” value was inactive: -71.8%.
In the case of COc1ccc2c(c1)CCc1cc(C(=O)N3CCN(c4ccc(N5CCOCC5)nn4)CC3)sc1-2, the “activity change, positive = activation” value is reported as inactive: -53.2%.
Work on CCCCCCCCCC(=O)N/N=C/c1ccc(C)s1 yielded an activity change, positive = activation of 48.3%.
With COc1ccc(C)cc1S(=O)(=O)N(CC(=O)O)c1ccccc1 the activity change, positive = activation was 32%.
With O=C1C(Nc2ccccc2)=CC(=O)c2ncccc21 the “activity change, positive = activation” value was inactive: -114%.
Work on Cc1[nH]n(-c2ccccc2)c(=O)c1C(C[N+](=O)[O-])c1ccccc1Cl (stereo not given) yielded an activity change, positive = activation of 20.9%.
For O=C(Nc1ccncc1)c1ccc2c(c1)S(=O)(=O)c1ccccc1C2=O, the “activity change, positive = activation” value was inactive: -34.6%.
With Cc1cc2nc(-c3cccc(NC(=O)COc4ccc(Cl)c(C)c4)c3)oc2cc1C the activity change, positive = activation was 56.8%.
With N/C(=N\OC(=O)Cc1ccc(-c2ccccc2)cc1)c1ccccn1 the “activity change, positive = activation” value was inactive: -32.7%.
Compound CN(C1CCCCC1)S(=O)(=O)c1ccc(NC(=O)C2CCCCC2C(=O)O)cc1 (stereo not given) has an activity change, positive = activation of 32.3%.
With Cc1ccc2nc(SCC(=O)Nc3cccc(S(=O)(=O)N(C)C)c3)[nH]c2c1 the “activity change, positive = activation” value was inactive: -33.3%.
Compound Cc1ccccc1-c1ccc(Nc2ccc(C(=O)N3CCOCC3)cc2)nn1 has an activity change, positive = activation of 3.26%.
In the case of Cc1cc(NC(=S)Nc2cccnc2)ccc1Br, the activity change, positive = activation is reported as -11.7%.
Work on CC(CCc1ccccc1)NC(=O)CCCCCNc1nc(=S)[nH]c2ccccc12 (stereo not given) yielded an activity change, positive = activation of -41.3%.
Work on COc1cccc(/C=C/C(=O)Nc2ccccc2N2CCOCC2)c1 yielded an activity change, positive = activation of 65.3%.
O=C(NCCCCCCOC1=NS(=O)(=O)c2ccccc21)C(=O)Nc1ccccc1 showed an activity change, positive = activation of 64.5%.
In the case of CNc1nc(N)c([N+](=O)[O-])c(NCc2ccccc2)n1, the activity change, positive = activation is reported as 75%.
With COc1ccc(/C(N)=N/OC(=O)c2ccco2)cc1 the Potency was active: 6.31 µM.
In the case of COCC(=O)N(Cc1cc2ccc(C)cc2[nH]c1=O)c1ccc(OC)cc1, the activity change, positive = activation is reported as 36.1%.
Compound COc1ccc(NC(=O)NCc2cccnc2)cc1OC has an activity change, positive = activation of 45.1%.
In the case of Cc1nn(CC(=O)Nc2ccc3c(c2)nc(CN2CCCCC2)n3C)c(=O)c2ccccc12, the activity change, positive = activation is reported as 17.3%.
In the case of O=C(O)c1cc(N/N=C/c2ccc3c(c2)OCCO3)ccc1Cl, the Potency is reported as active: 0.316 µM.
For Cc1cccc(C)c1NC(=O)CCCSc1nnc(-c2ccc(F)cc2)n1-c1ccccc1, the “activity change, positive = activation” value was inactive: -55.7%.
Work on COc1cc2[nH]c(=S)n(NC(=O)CC(C)C)c(=O)c2cc1OC yielded an activity change, positive = activation of 42.1%.
In the case of N#Cc1nc(-c2ccco2)oc1NCCN1CCOCC1, the activity change, positive = activation is reported as -23%.
COc1ccc(-c2cnnc(N/N=C/c3ccc(OC)c(OC)c3)n2)cc1 showed an activity change, positive = activation of -53.8%.
COc1ccc(OC)c(NS(=O)(=O)c2ccc3c(c2)n(C)c(=O)n3C)c1 gave an activity change, positive = activation of -54%.
CC1(C)CNC(=O)C=C(c2ccccc2)C1 showed an activity change, positive = activation of 24.2%.
With O=C1c2ccccc2NC(c2ccc3c(c2)OCCO3)N1c1ccc2c(c1)OCCO2 (stereo not given) the Potency was active: 3.55 µM.
For COc1ccc(/C=C/C(=O)c2c(O)cc(C)oc2=O)c(OC)c1, the “activity change, positive = activation” value was inactive: -33.9%.
CC(C)(C)OC(=O)COc1cc(OCC(=O)OC(C)(C)C)c2c(=O)cc(-c3ccccc3)oc2c1 showed an activity change, positive = activation of -67.5%.
In the case of COc1ccc(Cl)cc1NC(=O)CN1c2ccccc2CC1C (stereo not given), the “activity change, positive = activation” value is reported as inactive: -47.1%.
Compound Cc1cccc(NC(=O)NCCOCCn2c(=O)oc3ccccc32)c1C has an activity change, positive = activation of 45.5%.
In the case of Cc1cc(Cl)c(S(=O)(=O)N2CCSCC2)cc1OCC(=O)NC1CCCCC1, the “activity change, positive = activation” value is reported as inactive: -80.2%.
In the case of CCN(C(=O)COC(=O)c1cccnc1Nc1cccc(C(F)(F)F)c1)C1CCS(=O)(=O)C1 (stereo not given), the activity change, positive = activation is reported as -31.3%.
For O=C(NC(=S)Nc1ncccn1)c1ccc(Cl)cc1Cl, the activity change, positive = activation was 101%.
In the case of COc1ccc2nc(N=NC3=C(O)CC(C)(C)CC3=O)sc2c1, the “activity change, positive = activation” value is reported as inactive: -92%.
S=C(NCc1ccc(Cl)cc1Cl)NC1CCCCC1 gave an activity change, positive = activation of -54.7%.
In the case of CC(=C/c1ccc(C(C)C)cc1)/C=N/NC(=O)CSc1ccccn1, the activity change, positive = activation is reported as inactive: 2.82% [at 1.84 µM].
With O=C(COc1ccc(Cl)cc1Cl)N1CCCN(C(=O)COc2ccc(Cl)cc2Cl)CC1 the “activity change, positive = activation” value was inactive: -34.1%.
For CC(=O)c1c(C)[nH]c(C(=O)Nc2nc(-c3ccc(-c4ccccc4)cc3)cs2)c1C, the “activity change, positive = activation” value was inactive: -98.1%.
With O=S(=O)(c1cccc(C(F)(F)F)c1)N1c2ccccc2-n2cccc2[C@H]1c1cccnc1 the activity change, positive = activation was inactive: -41.7% [at 9.22 µM].
O=C(NNC(=O)C1CC=CCC1C(=O)O)c1cccs1 (stereo not given) showed an activity change, positive = activation of 33.4%.
In the case of COc1cccc2c1C(=O)c1c(O)c3c(c(O)c1C2=O)C[C@@](O)(C(=O)CO)C[C@H]3O[C@H]1C[C@@H](N)[C@H](O)[C@@H](C)O1.[W], the activity change, positive = activation is reported as inactive: -17.6% [at 9.22 µM].
In the case of COc1ccc(/C=C2\CCCC3C2=NN(C(=O)c2ccco2)C3c2ccc(OC)c(OC)c2)cc1OC (stereo not given), the activity change, positive = activation is reported as -32.3%.
For COc1cc2cc(C#N)c(SCC(=O)N3CCOCC3)nc2cc1OC, the Potency was active: 12.6 µM.
In the case of O=S(=O)(c1ccc(-c2cn3ccccc3n2)cc1)N1CCOCC1, the “activity change, positive = activation” value is reported as inactive: -43%.
